Data on one substance can be found in article PMC12637047.

This experiment addresses T1, in vivo biotinylated Interferon Regulatory Factor 4 (IRF4) (mouse) (UniProt Q64287).
T1 sequence (chain, biotin on the Avi-tag (in vivo biotinylation by BirA ligase)): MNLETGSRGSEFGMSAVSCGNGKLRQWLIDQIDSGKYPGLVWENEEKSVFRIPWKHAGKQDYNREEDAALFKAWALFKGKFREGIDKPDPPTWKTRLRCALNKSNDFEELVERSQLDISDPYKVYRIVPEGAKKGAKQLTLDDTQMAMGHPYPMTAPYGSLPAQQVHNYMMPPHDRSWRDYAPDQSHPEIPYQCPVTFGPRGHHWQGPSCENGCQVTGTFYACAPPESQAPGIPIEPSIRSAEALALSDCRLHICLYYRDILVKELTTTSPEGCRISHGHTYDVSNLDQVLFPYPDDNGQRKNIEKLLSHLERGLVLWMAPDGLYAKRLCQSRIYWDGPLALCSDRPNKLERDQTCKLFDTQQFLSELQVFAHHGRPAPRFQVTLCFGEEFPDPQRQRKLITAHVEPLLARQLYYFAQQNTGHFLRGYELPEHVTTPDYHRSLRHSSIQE
Put plainly: affinity purification with mass spectrometry; cells crosslinked in situ with 0.75 mM DSP, nuclei isolated, lysed in RIPA buffer; biotinylated IRF4 captured on streptavidin-coated magnetic beads overnight at 4°C, washes with RIPA 0.35% SDS and 25 mM Tris; label-free DIA LC-MS; Bio versus Ctrl (ROSA26^BirA) by limma.

Results are given in words; binding and its absence hold for the method and conditions named. Binding seen in cells or lysates may run through a third protein. These calls come from enrichment with a bait or labelling near it, and not all partners need be listed.

For GTF2IRD1-isoform2, the binding result is “binds”.
